PubChem BioAssay AID504791 – Drosophila RNAi Screening Center, 2011
The deposit covers about 23,000 reagents; this is an unselected part of those that have a named target and a result. Over the whole deposit, 199 (0.86%) are marked active. 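Plate-scaled ratios behind the calls are not deposited; printed light signals are raw; many rows marked increased or decreased are still called inactive.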 Entries without a mark were called inactive. Names joined by + are all predicted targets of the reagent. Reagent sequences are not shown. Not stated in the record: the direction of the score.

Aim: 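Genes of the fly required for silencing by miRNA, siRNA or endo-siRNA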 (primary screen)
Cells: Drosophila S2-derived reporter cells
Knock-down reagent: long dsRNA against Drosophila genes, about 150-250 ng dsRNA per well (siRNA assay); about 80-120 ng (miRNA assay)
Time to read-out: about 5 days (siRNA assay); about 4 days (miRNA assay)
Challenge: copper sulfate induction of reporters: 25 µM (siRNA assay); 200 mM stated (miRNA assay), 1-2 days before reading
Measurement: 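Dual luciferase assay: Renilla to firefly signal ratio in each well, scaled to the mean ratio of its plate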
Call rule: 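a well was a first-pass pick when its plate-scaled ratio rose above 1.5 (siRNA assay) or 1.6 (miRNA assay), or dropped below 0.6; a gene counted only if two separate dsRNAs agreed on retest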

| gene | amplicon | stable siRNA reporter change | miRNA reporter change | stable assay Renilla, run 1 (luminescence) | stable assay firefly, run 1 (luminescence) |
| --- | --- | --- | --- | --- | --- |
| Wdr62 (GeneID 33367) | DRSC00081 | – | – | 5259 | 4.17e5 |
| Wdr62 (GeneID 33367) | DRSC00082 | – | – | 5163 | 4.37e5 |
| Wdr62 (GeneID 33367) | DRSC00701 | – | – | 17525 | 4.47e5 |
| Wdr62 (GeneID 33367) | DRSC21913 | – | – | 9055 | 5.76e5 |
| Vps20 (GeneID 37581) | DRSC04448 | – | – | 5991 | 3.52e5 |
| CG10208 (GeneID 42814) | DRSC14211 | – | – | 8374 | 3.80e5 |
| Hsepi (GeneID 35569) | DRSC04986 | – | – | 6931 | 4.41e5 |
| CG32115 (GeneID 317862) | DRSC22607 | – | – | 6370 | 6.28e5 |
| GatC + PolG2 | DRSC03312 | – | – | 7618 | 1.42e6 |
| CG4563 (GeneID 37901) | DRSC04474 | – | – | 6947 | 3.83e5 |
| dpr8 (GeneID 32387) | DRSC19406 | – | – | 4952 | 3.85e5 |
| dpr8 (GeneID 32387) | DRSC19600 | – | – | 5020 | 4.00e5 |
| dpr8 (GeneID 32387) | DRSC19938 | – | – | 5116 | 3.92e5 |
| dpr8 (GeneID 32387) | DRSC19939 | reporter ratio raised past the hit cutoff | – | 6631 | 74889 |
| Hex-A (GeneID 45875) | DRSC18259 | – | – | 4616 | 3.71e5 |
| CG16953 (GeneID 42437) | DRSC15167 | – | – | 8987 | 3.33e5 |
| CG3713 (GeneID 50365) | DRSC18648 | – | – | 7206 | 5.31e5 |
| CG11367 (GeneID 40491) | DRSC22434 | – | – | 4183 | 4.34e5 |
| CG1304 (GeneID 33074) | DRSC20494 | – | – | 5098 | 3.50e5 |
| CG3277 (GeneID 33543) | DRSC00588 | – | – | 6151 | 3.57e5 |
| pes (GeneID 34087) | DRSC03033 | – | – | 6252 | 3.26e5 |
| COX7B (GeneID 50266) | DRSC10895 | – | – | 7110 | 4.44e5 |
| Gmd (GeneID 33716) | DRSC03119 | – | – | 8643 | 1.41e5 |
| Dh44-R1 (GeneID 36601) | DRSC07172 | – | – | 8029 | 5.92e5 |
| Tsp42Eb + CG30160 | DRSC04961 | – | – | 6691 | 5.86e5 |
| Tsp42Eb + CG30160 | DRSC06791 | – | – | 6310 | 3.51e5 |
| CG14187 (GeneID 40199) | DRSC10186 | – | – | 6610 | 4.13e5 |
| Mcad (GeneID 38864) | DRSC09871 | – | – | 8067 | 4.56e5 |
| CG31176 (GeneID 42554) | DRSC15038 | – | – | 6411 | 3.47e5 |
| CG31176 (GeneID 42554) | DRSC16021 | – | – | 7110 | 3.30e5 |

Limited to “stable assay Renilla, run 1 (luminescence)” (5 entries from above):
CG11367 (GeneID 40491) [DRSC22434]: 4183
CG1304 (GeneID 33074) [DRSC20494]: 5098
CG3277 (GeneID 33543) [DRSC00588]: 6151
pes (GeneID 34087) [DRSC03033]: 6252
COX7B (GeneID 50266) [DRSC10895]: 7110

The results go on:
| gene | amplicon | stable siRNA reporter change | miRNA reporter change | stable assay Renilla, run 1 (luminescence) | stable assay firefly, run 1 (luminescence) |
| --- | --- | --- | --- | --- | --- |
| alpha-PheRS (GeneID 31740) | DRSC18224 | – | – | 8604 | 4.89e5 |
| CG14817 (GeneID 31145) | DRSC18547 | – | – | 5975 | 4.00e5 |
| CG31805 (GeneID 318952) | DRSC01563 | – | – | 4795 | 3.17e5 |
| mle (GeneID 35523) | DRSC04921 | – | – | 5535 | 2.70e5 |
| Rab3-GAP (GeneID 34626) | DRSC02001 | – | – | 26192 | 6.30e5 |
| CG5550 (GeneID 36883) | DRSC06943 | – | – | 6454 | 3.85e5 |
| pinta (GeneID 42635) | DRSC14698 | – | – | 8347 | 3.36e5 |
| Jon25Bi (GeneID 33708) | DRSC03434 | – | – | 6983 | 3.82e5 |
| Ctr9 (GeneID 38149) | DRSC08562 | – | reporter ratio lowered past the hit cutoff (active) | 5352 | 2.26e5 |
| CG34429 (GeneID 5740606) | DRSC10120 | – | – | 5352 | 4.12e5 |
| DIP-eta (GeneID 33793) | DRSC02342 | – | – | 7231 | 4.70e5 |
| CG5439 (GeneID 34710) | DRSC02861 | – | – | 23939 | 4.70e5 |
| Hs3st-B (GeneID 32918) | DRSC20067 | – | – | 5124 | 4.49e5 |
| Chd3 (GeneID 40111) | DRSC11114 | – | – | 6687 | 4.34e5 |
| Rcd-1r + CG13102 | DRSC03266 | – | – | 6782 | 3.66e5 |
| CG1603 (GeneID 35683) | DRSC06602 | – | reporter ratio lowered past the hit cutoff | 8859 | 2.15e6 |
| CG2926 (GeneID 40676) | DRSC12321 | – | – | 8770 | 4.27e5 |
| CG9265 (GeneID 35369) | DRSC03178 | – | – | 6875 | 4.23e5 |
| CG9265 (GeneID 35369) | DRSC03179 | – | – | 6706 | 4.08e5 |
| vanin-like (GeneID 31551) | DRSC17440 | – | – | 4743 | 3.17e5 |
| promL (GeneID 38372) | DRSC08733 | – | – | 10604 | 4.25e5 |
| RpL31 (GeneID 35988) | DRSC06716 | – | – | 7922 | 3.20e5 |
| Mdr65 (GeneID 38726) | DRSC11220 | – | – | 4994 | 4.23e5 |
| CG13962 (GeneID 35270) | DRSC02304 | – | – | 7231 | 4.28e5 |
| Vamp7 (GeneID 36015) | DRSC06599 | – | – | 6407 | 4.27e5 |
| ttk (GeneID 48317) | DRSC14078 | – | – | 7907 | 3.53e5 |
| ttk (GeneID 48317) | DRSC17091 | – | – | 5596 | 3.08e5 |
